Laboratory results published in article PMC5578999, “Novel quinolone chalcones targeting colchicine-binding pocket kill multidrug-resistant cancer cells by inhibiting tubulin activity and MRP1 function” (Scientific Reports, 2017).

Columns and labels:
Type in all cases: cell-based
KB-C-2 = test: SRB cell viability, MDR1-overexpressing cells; conditions: Homo sapiens, KB-C2, Table S1
Method: (§1) human epidermoid carcinoma cell line and KB-C2, an isogenic MDR1- overexpressing drug-resistant cell line, were kindl y provided b y Dr. Amit K Tiwari, the Universit y of Toledo, OH. […]
(§2) Cell line authentication was carried out by Genetica DNA
(§3) Laboratories (Burlington, NC) using a short tandem repeat (STR) profiling method (March 2015; […]
(§4) Cell viability, com binational i ndex and cell synchronization
(§5) Cell viability and proliferation were ex amined using a s ulforhodamine B (SRB) assa y as described previousl y (Hu et al., 2008). IC 50 values were calculat ed from si gmoidal dose-response cu rves gen erat ed b y at least two indepen dent ex periments , with each quadruplicate samples, using GraphPad Prism v.5.04 software (GraphPad Software, Inc, La J olla, CA). […]
(§6) 737/ABT-199 w ere us ed at or below IC 50 . […]
(§7) previousl y described (Chou, 2006). […]
(§8) (Romero and Lee, 2008), and the cells were r eleas ed in to complete medium in the absence (sham) or presence of compound(s). […]

SW-1271 = test: SRB cell viability; conditions: SW1271, Table S1
Method: as §2, §3, §4, §5, §6, §7, §8

H69AR = test: SRB cell viability, multidrug-resistant cells; conditions: Homo sapiens, Table S1
Method: as §2, §3, §4, §5, §6, §7, §8

KB-C-1 = test: SRB cell viability, parental cells; conditions: Homo sapiens, KBC-1, Table S1
Method: as §1, §2, §3, §4, §5, §6, §7, §8

Question: Which IC50 (KB-C-2) does the source give for `COc1cc2c(c(OC)c1OC)-c1ccc(OC)c(=O)cc1[C@@H](NC(C)=O)CC2` [colchicine] here?
Answer: Its IC50 is 0.0835 ± 0.00722 µM.

Question: What about the IC50 (SW-1271) of the same molecule?
Answer: The IC50 was 0.00484 ± 0.0008 µM.

Question: And the IC50 (H69AR)?
Answer: The IC50 was 0.023 ± 0.00363 µM.

Question: And the IC50 (KB-C-1)?
Answer: The IC50 was 0.00536 ± 0.00054 µM.
